Reference: the supplement of paper PMC10849652
The list shows a part of the results.

Amino acid sequences for entries named in this document (tags omitted). A change or cut given only in a name is not applied to a line headed by its entry.
UniProt P49720: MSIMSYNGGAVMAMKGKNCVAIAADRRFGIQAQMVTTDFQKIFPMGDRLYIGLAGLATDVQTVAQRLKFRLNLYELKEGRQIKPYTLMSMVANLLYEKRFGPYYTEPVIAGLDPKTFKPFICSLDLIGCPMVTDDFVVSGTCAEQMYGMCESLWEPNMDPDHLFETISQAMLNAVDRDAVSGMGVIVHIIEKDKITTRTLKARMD
UniProt Q53H96: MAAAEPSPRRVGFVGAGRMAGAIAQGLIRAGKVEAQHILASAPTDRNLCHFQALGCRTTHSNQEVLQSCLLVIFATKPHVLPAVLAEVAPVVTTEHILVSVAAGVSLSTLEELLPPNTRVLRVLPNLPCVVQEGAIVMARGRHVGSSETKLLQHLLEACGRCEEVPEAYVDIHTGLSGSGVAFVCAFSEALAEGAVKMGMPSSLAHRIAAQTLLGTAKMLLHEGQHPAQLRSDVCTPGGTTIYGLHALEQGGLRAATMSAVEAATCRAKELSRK
UniProt P09417: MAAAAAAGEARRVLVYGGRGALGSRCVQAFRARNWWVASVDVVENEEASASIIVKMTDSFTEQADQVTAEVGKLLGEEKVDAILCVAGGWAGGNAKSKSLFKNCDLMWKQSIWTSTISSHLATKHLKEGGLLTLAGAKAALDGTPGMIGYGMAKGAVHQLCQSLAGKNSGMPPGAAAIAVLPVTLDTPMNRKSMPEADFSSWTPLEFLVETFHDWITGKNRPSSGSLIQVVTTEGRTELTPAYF
UniProt Q969U7: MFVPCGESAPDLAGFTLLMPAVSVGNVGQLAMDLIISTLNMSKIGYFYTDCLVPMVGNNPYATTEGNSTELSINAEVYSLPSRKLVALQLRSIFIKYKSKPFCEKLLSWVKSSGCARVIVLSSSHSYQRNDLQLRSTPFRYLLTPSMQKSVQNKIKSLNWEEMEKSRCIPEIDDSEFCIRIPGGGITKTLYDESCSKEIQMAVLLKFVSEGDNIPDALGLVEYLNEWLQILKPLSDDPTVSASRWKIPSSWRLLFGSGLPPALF
UniProt O95758: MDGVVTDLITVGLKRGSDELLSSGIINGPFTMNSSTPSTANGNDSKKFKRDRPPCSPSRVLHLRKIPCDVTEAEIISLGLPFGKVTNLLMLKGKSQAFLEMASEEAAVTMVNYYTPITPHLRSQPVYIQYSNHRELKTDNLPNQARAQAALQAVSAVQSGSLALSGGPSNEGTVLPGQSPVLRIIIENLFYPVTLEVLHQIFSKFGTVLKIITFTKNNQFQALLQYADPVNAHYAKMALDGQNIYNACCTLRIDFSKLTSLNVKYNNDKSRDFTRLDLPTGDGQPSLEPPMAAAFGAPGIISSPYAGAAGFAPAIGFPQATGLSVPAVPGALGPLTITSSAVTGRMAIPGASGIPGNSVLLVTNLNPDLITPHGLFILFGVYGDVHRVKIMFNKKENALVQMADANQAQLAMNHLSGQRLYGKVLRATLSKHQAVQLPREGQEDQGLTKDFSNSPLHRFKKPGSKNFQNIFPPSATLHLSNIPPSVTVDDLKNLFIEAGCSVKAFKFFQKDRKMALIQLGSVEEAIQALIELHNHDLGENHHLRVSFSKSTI
UniProt Q9BVG9: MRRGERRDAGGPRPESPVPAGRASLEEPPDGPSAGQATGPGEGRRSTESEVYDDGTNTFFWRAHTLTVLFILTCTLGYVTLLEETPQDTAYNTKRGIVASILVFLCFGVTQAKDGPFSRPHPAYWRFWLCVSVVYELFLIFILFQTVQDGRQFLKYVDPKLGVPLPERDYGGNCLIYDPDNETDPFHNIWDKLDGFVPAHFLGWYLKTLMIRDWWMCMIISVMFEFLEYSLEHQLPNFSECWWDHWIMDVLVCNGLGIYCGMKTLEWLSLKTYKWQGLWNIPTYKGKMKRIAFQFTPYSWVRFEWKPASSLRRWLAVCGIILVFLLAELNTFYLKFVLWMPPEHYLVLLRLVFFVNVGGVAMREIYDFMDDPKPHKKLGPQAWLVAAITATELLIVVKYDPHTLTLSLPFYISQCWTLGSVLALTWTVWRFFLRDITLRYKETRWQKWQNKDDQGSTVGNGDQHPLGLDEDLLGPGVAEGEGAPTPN
UniProt Q6PGN9: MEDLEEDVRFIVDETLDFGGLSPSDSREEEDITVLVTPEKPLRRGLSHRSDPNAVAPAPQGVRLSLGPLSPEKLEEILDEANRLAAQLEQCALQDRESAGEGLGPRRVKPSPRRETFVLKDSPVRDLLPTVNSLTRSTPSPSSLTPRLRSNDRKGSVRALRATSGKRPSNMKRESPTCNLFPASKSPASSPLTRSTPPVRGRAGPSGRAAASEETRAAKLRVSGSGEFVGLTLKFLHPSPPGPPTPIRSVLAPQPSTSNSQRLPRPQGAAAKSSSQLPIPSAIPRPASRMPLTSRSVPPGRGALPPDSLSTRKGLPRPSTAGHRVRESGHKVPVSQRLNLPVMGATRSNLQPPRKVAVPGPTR
UniProt P47897: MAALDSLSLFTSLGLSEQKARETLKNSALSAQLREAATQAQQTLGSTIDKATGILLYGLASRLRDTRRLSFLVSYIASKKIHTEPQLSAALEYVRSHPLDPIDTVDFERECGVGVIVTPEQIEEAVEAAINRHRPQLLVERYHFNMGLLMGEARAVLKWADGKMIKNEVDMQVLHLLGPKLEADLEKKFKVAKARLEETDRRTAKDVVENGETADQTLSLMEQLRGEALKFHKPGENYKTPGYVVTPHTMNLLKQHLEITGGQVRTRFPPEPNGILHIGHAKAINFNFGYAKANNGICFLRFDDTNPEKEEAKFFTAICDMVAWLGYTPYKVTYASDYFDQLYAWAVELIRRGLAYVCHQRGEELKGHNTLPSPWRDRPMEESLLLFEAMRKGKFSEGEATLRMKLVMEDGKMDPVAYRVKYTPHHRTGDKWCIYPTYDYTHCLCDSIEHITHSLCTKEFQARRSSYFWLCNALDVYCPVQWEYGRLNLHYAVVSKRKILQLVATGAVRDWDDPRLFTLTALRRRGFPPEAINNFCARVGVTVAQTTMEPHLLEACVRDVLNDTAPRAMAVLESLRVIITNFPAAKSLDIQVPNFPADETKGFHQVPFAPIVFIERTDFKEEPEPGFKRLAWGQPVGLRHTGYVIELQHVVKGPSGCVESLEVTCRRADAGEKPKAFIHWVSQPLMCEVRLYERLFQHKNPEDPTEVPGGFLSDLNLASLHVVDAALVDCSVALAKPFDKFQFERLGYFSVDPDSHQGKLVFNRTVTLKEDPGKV
UniProt Q15274: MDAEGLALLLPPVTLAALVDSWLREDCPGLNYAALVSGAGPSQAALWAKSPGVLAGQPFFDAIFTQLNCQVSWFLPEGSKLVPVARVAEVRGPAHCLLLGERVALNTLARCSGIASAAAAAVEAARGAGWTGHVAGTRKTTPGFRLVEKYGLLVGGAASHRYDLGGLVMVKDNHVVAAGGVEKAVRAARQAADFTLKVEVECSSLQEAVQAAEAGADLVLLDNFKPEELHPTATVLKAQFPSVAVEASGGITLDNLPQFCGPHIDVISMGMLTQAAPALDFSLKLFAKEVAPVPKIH
UniProt Q7Z6K3: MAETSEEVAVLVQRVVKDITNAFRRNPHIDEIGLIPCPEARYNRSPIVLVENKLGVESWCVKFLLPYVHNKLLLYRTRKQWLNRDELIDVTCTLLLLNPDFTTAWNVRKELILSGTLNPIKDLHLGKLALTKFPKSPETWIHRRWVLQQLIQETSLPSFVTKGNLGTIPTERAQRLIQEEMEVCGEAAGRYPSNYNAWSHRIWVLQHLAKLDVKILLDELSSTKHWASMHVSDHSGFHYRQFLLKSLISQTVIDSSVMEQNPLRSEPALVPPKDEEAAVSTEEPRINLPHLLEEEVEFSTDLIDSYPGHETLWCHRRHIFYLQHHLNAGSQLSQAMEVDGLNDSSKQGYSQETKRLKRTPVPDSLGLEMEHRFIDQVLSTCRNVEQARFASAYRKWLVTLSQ
UniProt O75832: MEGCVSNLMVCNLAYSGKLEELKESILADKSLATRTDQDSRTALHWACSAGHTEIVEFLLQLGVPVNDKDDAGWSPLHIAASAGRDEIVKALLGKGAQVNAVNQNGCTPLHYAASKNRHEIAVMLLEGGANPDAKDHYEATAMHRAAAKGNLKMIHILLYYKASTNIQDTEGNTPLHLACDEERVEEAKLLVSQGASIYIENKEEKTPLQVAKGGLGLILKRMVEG
UniProt P60900, whole entry, looked up: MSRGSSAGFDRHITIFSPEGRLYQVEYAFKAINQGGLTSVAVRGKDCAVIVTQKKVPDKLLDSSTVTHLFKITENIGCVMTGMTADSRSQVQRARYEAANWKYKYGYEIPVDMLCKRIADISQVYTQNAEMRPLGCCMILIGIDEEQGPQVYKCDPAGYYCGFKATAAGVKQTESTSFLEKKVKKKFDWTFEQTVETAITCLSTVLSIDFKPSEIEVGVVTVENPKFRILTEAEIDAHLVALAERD
UniProt P20618: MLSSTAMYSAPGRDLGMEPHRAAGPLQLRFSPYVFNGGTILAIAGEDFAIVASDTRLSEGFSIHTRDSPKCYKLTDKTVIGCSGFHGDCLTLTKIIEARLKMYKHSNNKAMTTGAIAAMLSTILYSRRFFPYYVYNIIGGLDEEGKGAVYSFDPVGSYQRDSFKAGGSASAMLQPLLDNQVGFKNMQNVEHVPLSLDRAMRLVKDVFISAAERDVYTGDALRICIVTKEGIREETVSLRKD
UniProt Q9Y617: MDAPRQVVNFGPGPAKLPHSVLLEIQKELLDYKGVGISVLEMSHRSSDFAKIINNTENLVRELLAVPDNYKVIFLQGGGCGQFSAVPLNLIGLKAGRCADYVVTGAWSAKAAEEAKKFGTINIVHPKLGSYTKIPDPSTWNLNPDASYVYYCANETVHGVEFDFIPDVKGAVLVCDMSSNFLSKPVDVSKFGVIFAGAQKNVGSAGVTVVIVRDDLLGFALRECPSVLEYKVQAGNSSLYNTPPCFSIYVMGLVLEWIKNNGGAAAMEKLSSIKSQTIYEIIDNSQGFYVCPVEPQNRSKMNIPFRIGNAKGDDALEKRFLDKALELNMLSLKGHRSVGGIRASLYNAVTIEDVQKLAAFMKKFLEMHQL
UniProt Q9NXS2: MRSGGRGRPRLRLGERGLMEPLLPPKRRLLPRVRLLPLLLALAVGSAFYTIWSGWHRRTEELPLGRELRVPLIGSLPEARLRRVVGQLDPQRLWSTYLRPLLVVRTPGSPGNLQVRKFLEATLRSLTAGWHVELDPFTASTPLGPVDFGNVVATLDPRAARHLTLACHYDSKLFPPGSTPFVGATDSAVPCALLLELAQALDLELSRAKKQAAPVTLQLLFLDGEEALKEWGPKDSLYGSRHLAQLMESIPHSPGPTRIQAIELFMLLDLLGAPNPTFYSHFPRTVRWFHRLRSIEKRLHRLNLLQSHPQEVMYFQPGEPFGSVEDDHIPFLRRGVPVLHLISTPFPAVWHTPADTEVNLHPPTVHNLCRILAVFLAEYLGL
UniProt O95456: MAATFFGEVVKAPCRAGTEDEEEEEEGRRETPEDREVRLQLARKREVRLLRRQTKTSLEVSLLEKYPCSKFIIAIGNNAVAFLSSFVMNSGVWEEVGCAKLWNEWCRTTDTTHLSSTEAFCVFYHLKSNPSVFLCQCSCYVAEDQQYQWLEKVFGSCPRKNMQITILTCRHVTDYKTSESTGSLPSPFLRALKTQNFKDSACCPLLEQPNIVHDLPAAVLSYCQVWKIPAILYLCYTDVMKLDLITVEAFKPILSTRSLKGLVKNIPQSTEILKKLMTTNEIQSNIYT

Tests used:
Experiment in all cases: log2 fold change, soluble protein after heating vs DMSO (PISA); higher = thermal stabilisation; K562 cells, 10 uM, 30 min; active = over 0.2 and 3.5 SD of the protein, either way, in both replicates (recomputed)
[1] = compound: COC1=CC=C(C=C1)CN2C=CC3=C2C=C(C=C3)C(=O)NO
Summary of the method: (§1)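 K562 cells (2×10^6 cells/mL) were treated with 10 μM compound for 30 min, and aliquots were heated for 3 min over 48°C-58°C. Pooled aliquots were extracted in PBS with 0.5% NP-40 at 4°C, and the supernatant after 21,000xg for 90 min was measured by TMTpro 16plex LC-MS/MS with channel sums equalised. Reported thermal stability, relative to control samples and from duplicates, is a log2 fold change.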

filanesib = compound: CON(C)C(=O)N1N=C(c2cc(F)ccc2F)S[C@@]1(CCCN)c1ccccc1 [filanesib]
Summary of the method: as §1

zotarolimus = compound: CO[C@H]1C[C@@H]2CC[C@@H](C)[C@@](O)(O2)C(=O)C(=O)N2CCCC[C@H]2C(=O)O[C@H]([C@H](C)C[C@@H]2CC[C@H](n3cnnn3)[C@H](OC)C2)CC(=O)[C@H](C)/C=C(\C)[C@@H](O)[C@@H](OC)C(=O)[C@H](C)C[C@H](C)/C=C/C=C/C=C/1C [zotarolimus]
Summary of the method: as §1

idasanutlin = compound: COc1cc(C(=O)O)ccc1NC(=O)[C@@H]1N[C@@H](CC(C)(C)C)[C@](C#N)(c2ccc(Cl)cc2F)[C@H]1c1cccc(Cl)c1F [idasanutlin]
Summary of the method: as §1

alisertib = compound: COc1cc(Nc2ncc3c(n2)-c2ccc(Cl)cc2C(c2c(F)cccc2OC)=NC3)ccc1C(=O)O [alisertib]
Summary of the method: as §1

[2] = compound: COc1cc2nc(-c3cc(F)ccc3O)nc(N[C@@H]3CNC[C@H]3C(C)(C)O)c2cc1OC
Summary of the method: as §1

gefitinib = compound: COc1cc2ncnc(Nc3ccc(F)c(Cl)c3)c2cc1OCCCN1CCOCC1 [gefitinib]
Summary of the method: as §1

[3] = compound: COc1cccc2cc(-c3nc([C@H]4CC[C@H](C(=O)O)CC4)n4ncnc(N)c34)[nH]c12
Summary of the method: as §1

lapatinib = compound: CS(=O)(=O)CCNCc1ccc(-c2ccc3ncnc(Nc4ccc(OCc5cccc(F)c5)c(Cl)c4)c3c2)o1 [lapatinib]
Summary of the method: as §1

pictilisib = compound: CS(=O)(=O)N1CCN(Cc2cc3nc(-c4cccc5[nH]ncc45)nc(N4CCOCC4)c3s2)CC1 [pictilisib]
Summary of the method: as §1

[4] = compound: CS(=O)(=O)c1ccc(-c2cnc(N)c(C(=O)Nc3ccccc3)n2)cc1
Summary of the method: as §1

crizotinib = compound: C[C@@H](Oc1cc(-c2cnn(C3CCNCC3)c2)cnc1N)c1c(Cl)ccc(F)c1Cl [crizotinib]
Summary of the method: as §1

[5] = compound: C[C@@H]1COCCN1C2=NC(=NC(=C2)C3(CC3)S(=O)(=O)C)C4=C5C=CNC5=CC=C4
Summary of the method: as §1

[6] = compound: C[C@H](C1=CC=C(C=C1)C(=O)NC2=C3C=CNC3=NC=C2)N
Summary of the method: as §1

duvelisib = compound: C[C@H](Nc1ncnc2nc[nH]c12)c1cc2cccc(Cl)c2c(=O)n1-c1ccccc1 [duvelisib]
Summary of the method: as §1

gandotinib = compound: Cc1cc(Nc2cc(CN3CCOCC3)c3nc(C)c(Cc4ccc(Cl)cc4F)n3n2)n[nH]1 [gandotinib]
Summary of the method: as §1

tozasertib = compound: Cc1cc(Nc2cc(N3CCN(C)CC3)nc(Sc3ccc(NC(=O)C4CC4)cc3)n2)n[nH]1 [tozasertib]
Summary of the method: as §1

[7] = compound: Cc1cc(SCc2sc(-c3ccc(C(F)(F)F)cc3)nc2C)ccc1OCC(=O)O
Summary of the method: as §1

doramapimod = compound: Cc1ccc(-n2nc(C(C)(C)C)cc2NC(=O)Nc2ccc(OCCN3CCOCC3)c3ccccc23)cc1 [doramapimod]
Summary of the method: as §1

ispinesib = compound: Cc1ccc(C(=O)N(CCCN)[C@@H](c2nc3cc(Cl)ccc3c(=O)n2Cc2ccccc2)C(C)C)cc1 [ispinesib]
Summary of the method: as §1

Measured: log2 fold change

PSMB3 (UniProt P49720)
inactive: [1] -0.053 | filanesib 0.058 | zotarolimus 0.013 | idasanutlin 0.014 | alisertib -0.038 | [2] -0.032 | gefitinib 0 | [3] 0.022 | lapatinib 0.045 | pictilisib -0.075 | [4] -0.012 | crizotinib 0.107 | [5] -0.118 | [6] -0.002 | duvelisib -0.084 | gandotinib 0.002 | tozasertib 0.015 | [7] -0.014 | doramapimod 0.015 | ispinesib 0.031

PYCR3 (UniProt Q53H96)
inactive: [1] 0.06 | filanesib -0.041 | zotarolimus 0.005 | idasanutlin -0.019 | alisertib -0.035 | [2] 0.033 | gefitinib 0.017 | [3] 0.056 | lapatinib -0.02 | pictilisib 0.007 | [4] -0.016 | crizotinib 0.014 | [5] -0.004 | [6] -0.057 | duvelisib 0.025 | gandotinib -0.024 | tozasertib -0.034 | [7] -0.018 | doramapimod -0.022 | ispinesib 0.011

QDPR (UniProt P09417)
inactive: [1] 0.006 | filanesib -0.001 | zotarolimus -0.027 | idasanutlin 0.025 | alisertib -0.028 | [2] -0.024 | gefitinib 0.014 | [3] 0.068 | lapatinib -0.003 | pictilisib -0.026 | [4] -0.012 | crizotinib 0.037 | [5] -0.013 | [6] -0.028 | duvelisib -0.01 | gandotinib 0.048 | tozasertib -0.034 | [7] -0.021 | doramapimod 0 | ispinesib 0.021

PSMG2 (UniProt Q969U7)
inactive: [1] -0.081 | filanesib -0.045 | zotarolimus 0.017 | idasanutlin -0.079 | alisertib -0.055 | [2] 0.016 | gefitinib -0.009 | [3] 0.059 | lapatinib -0.013 | pictilisib 0.072 | [4] -0.007 | crizotinib 0.042 | [5] 0.07 | [6] -0.082 | duvelisib 0.028 | gandotinib -0.031 | tozasertib 0.002 | [7] -0.02 | doramapimod -0.034 | ispinesib -0.008

PTBP3 isoform 4 (UniProt O95758)
inactive: [1] 0.03 | filanesib 0.051 | zotarolimus 0.041 | idasanutlin -0.004 | alisertib -0.042 | [2] -0.038 | gefitinib 0.021 | [3] -0.004 | lapatinib 0.048 | pictilisib 0.003 | [4] -0.035 | crizotinib 0.063 | [5] -0.002 | [6] -0.022 | duvelisib 0.023 | gandotinib -0.052 | tozasertib 0.026 | [7] 0.086 | doramapimod -0.065 | ispinesib 0.003

PTDSS2 (UniProt Q9BVG9)
inactive: [1] -0.075 | filanesib -0.062 | zotarolimus -0.011 | idasanutlin -0.034 | alisertib -0.049 | [2] -0.009 | gefitinib 0.065 | [3] -0.016 | lapatinib 0.009 | pictilisib 0.038 | [4] -0.007 | crizotinib -0.249 | [5] 0.017 | [6] 0.019 | duvelisib -0.034 | gandotinib -0.149 | tozasertib 0.056 | [7] 0.014 | doramapimod 0.036 | ispinesib -0.095

PSRC1 (UniProt Q6PGN9)
inactive: [1] 0.014 | filanesib 0.203 | zotarolimus -0.068 | idasanutlin 0.073 | alisertib -0.165 | [2] 0.058 | gefitinib 0.018 | [3] -0.185 | lapatinib -0.03 | pictilisib -0.029 | [4] -0.036 | crizotinib -0.081 | [5] -0.063 | [6] 0.176 | duvelisib -0.047 | gandotinib -0.178 | tozasertib -0.085 | [7] 0.023 | doramapimod 0.041 | ispinesib -0.039

QARS (UniProt P47897)
inactive: [1] -0.032 | filanesib 0.425 | zotarolimus 0.065 | idasanutlin 0.228 | alisertib -0.06 | [2] -0.059 | gefitinib -0.033 | [3] -0.281 | lapatinib 0.129 | pictilisib -0.139 | [4] 0.055 | crizotinib -0.074 | [5] -0.377 | [6] 0.478 | duvelisib -0.173 | gandotinib 0.198 | tozasertib 0.013 | [7] 0.081 | doramapimod 0.295 | ispinesib -0.293

QPRT (UniProt Q15274)
inactive: [1] 0.041 | filanesib -0.008 | zotarolimus 0.068 | idasanutlin -0.041 | alisertib -0.026 | [2] -0.018 | gefitinib 0.033 | [3] 0.042 | lapatinib -0.014 | pictilisib 0.034 | [4] 0.011 | crizotinib 0.027 | [5] 0.127 | [6] -0.002 | duvelisib 0.051 | gandotinib 0.021 | tozasertib -0.004 | [7] -0.033 | doramapimod 0.002 | ispinesib 0.086

PTAR1 (UniProt Q7Z6K3)
inactive: [1] -0.073 | filanesib 0.061 | zotarolimus 0.041 | idasanutlin -0.037 | alisertib 0.064 | [2] 0.013 | gefitinib 0.026 | [3] 0.128 | lapatinib 0 | pictilisib 0.018 | [4] 0.06 | crizotinib -0.014 | [5] 0.1 | [6] -0.098 | duvelisib 0.06 | gandotinib -0.092 | tozasertib -0.01 | [7] 0.009 | doramapimod 0.069 | ispinesib -0.028

Two neighbouring entries already listed, quoted:
QARS (UniProt P47897)
inactive: [1] -0.032 | filanesib 0.425 | zotarolimus 0.065 | idasanutlin 0.228 | alisertib -0.06 | [2] -0.059 | gefitinib -0.033 | [3] -0.281 | lapatinib 0.129 | pictilisib -0.139 | [4] 0.055 | crizotinib -0.074 | [5] -0.377 | [6] 0.478 | duvelisib -0.173 | gandotinib 0.198 | tozasertib 0.013 | [7] 0.081 | doramapimod 0.295 | ispinesib -0.293

QPRT (UniProt Q15274)
inactive: [1] 0.041 | filanesib -0.008 | zotarolimus 0.068 | idasanutlin -0.041 | alisertib -0.026 | [2] -0.018 | gefitinib 0.033 | [3] 0.042 | lapatinib -0.014 | pictilisib 0.034 | [4] 0.011 | crizotinib 0.027 | [5] 0.127 | [6] -0.002 | duvelisib 0.051 | gandotinib 0.021 | tozasertib -0.004 | [7] -0.033 | doramapimod 0.002 | ispinesib 0.086

More entries

PSMD10 (UniProt O75832)
inactive: [1] 0.072 | filanesib 0.005 | zotarolimus 0.058 | idasanutlin -0.068 | alisertib -0.01 | [2] 0.059 | gefitinib 0.013 | [3] -0.025 | lapatinib -0.041 | pictilisib -0.07 | [4] 0.034 | crizotinib 0.025 | [5] 0.101 | [6] 0.026 | duvelisib 0.038 | gandotinib 0.013 | tozasertib 0.128 | [7] 0.099 | doramapimod -0.076 | ispinesib 0.026

PSMA6 (UniProt P60900)
inactive: [1] 0.03 | filanesib 0.03 | zotarolimus -0.01 | idasanutlin -0.002 | alisertib -0.025 | [2] -0.048 | gefitinib -0.051 | [3] -0.03 | lapatinib 0.019 | pictilisib 0.043 | [4] -0.026 | crizotinib 0.087 | [5] -0.041 | [6] 0.021 | duvelisib -0.023 | gandotinib 0.013 | tozasertib 0.009 | [7] 0.008 | doramapimod -0.016 | ispinesib 0.064

PSMB1 (UniProt P20618)
inactive: [1] 0.016 | filanesib 0.04 | zotarolimus -0.043 | idasanutlin 0.015 | alisertib -0.017 | [2] 0.005 | gefitinib -0.018 | [3] -0.03 | lapatinib 0.019 | pictilisib -0.073 | [4] 0.009 | crizotinib 0.068 | [5] -0.05 | [6] 0.059 | duvelisib -0.04 | gandotinib -0.074 | tozasertib 0.005 | [7] 0.034 | doramapimod 0.021 | ispinesib 0.021

PSAT1 (UniProt Q9Y617)
inactive: [1] 0.029 | filanesib -0.055 | zotarolimus -0.029 | idasanutlin 0.004 | alisertib -0.079 | [2] -0.023 | gefitinib -0.006 | [3] 0.008 | lapatinib -0.019 | pictilisib -0.018 | [4] -0.011 | crizotinib 0.035 | [5] -0.026 | [6] -0.056 | duvelisib 0.005 | gandotinib 0.011 | tozasertib -0.004 | [7] -0.031 | doramapimod -0.044 | ispinesib 0.066

QPCTL (UniProt Q9NXS2)
inactive: [1] -0.072 | filanesib 0.075 | zotarolimus 0.082 | idasanutlin -0.023 | alisertib -0.089 | [2] -0.07 | gefitinib -0.004 | [3] 0.028 | lapatinib 0.132 | pictilisib -0.011 | [4] 0.019 | crizotinib 0.002 | [5] -0.005 | [6] 0.093 | duvelisib -0.021 | gandotinib 0.027 | tozasertib -0.065 | [7] 0.082 | doramapimod 0.027 | ispinesib -0.127

PSMG1 (UniProt O95456)
inactive: [1] 0.02 | filanesib -0.055 | zotarolimus -0.029 | idasanutlin -0.018 | alisertib -0.099 | [2] -0.031 | gefitinib -0.01 | [3] -0.028 | lapatinib 0.007 | pictilisib -0.017 | [4] -0.011 | crizotinib 0.015 | [5] -0.006 | [6] -0.053 | duvelisib 0.024 | gandotinib -0.023 | tozasertib -0.041 | [7] -0.038 | doramapimod -0.055 | ispinesib 0.048
